# Assay results: ChEMBL document CHEMBL3621100, “Discovery of Novel Class I Histone Deacetylase Inhibitors with Promising in Vitro and in Vivo Antitumor Activities” (J Med Chem, 2015)
# Sequences of proteins named here, by UniProt entry; tags and fusion partners are left off. A change or cut given only in a name is not applied to a line headed by its entry.
# UniProt O15379: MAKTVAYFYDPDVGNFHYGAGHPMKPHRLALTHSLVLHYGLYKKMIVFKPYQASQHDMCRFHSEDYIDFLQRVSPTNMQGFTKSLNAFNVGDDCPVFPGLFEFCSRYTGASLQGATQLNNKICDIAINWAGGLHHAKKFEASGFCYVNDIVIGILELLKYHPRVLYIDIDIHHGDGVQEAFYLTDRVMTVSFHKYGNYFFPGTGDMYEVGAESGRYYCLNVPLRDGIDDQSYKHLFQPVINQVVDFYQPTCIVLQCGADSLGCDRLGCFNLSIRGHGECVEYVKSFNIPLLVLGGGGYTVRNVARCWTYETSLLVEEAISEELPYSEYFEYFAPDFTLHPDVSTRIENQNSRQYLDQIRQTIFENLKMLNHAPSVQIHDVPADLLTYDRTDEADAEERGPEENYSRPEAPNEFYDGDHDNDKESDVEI
# Key:
# [1] = target: Histone deacetylase 3 (Homo sapiens, UniProt O15379); experiment: Inhibition of recombinant human HDAC3 after 60 mins by fluorescence assay
# [2] = target: T1, Protein deacetylase HDAC6 (Homo sapiens, UniProt Q9UBN7); experiment: Inhibition of recombinant human HDAC6 after 60 mins by fluorescence assay
# T1 sequence (Q9UBN7 whole entry): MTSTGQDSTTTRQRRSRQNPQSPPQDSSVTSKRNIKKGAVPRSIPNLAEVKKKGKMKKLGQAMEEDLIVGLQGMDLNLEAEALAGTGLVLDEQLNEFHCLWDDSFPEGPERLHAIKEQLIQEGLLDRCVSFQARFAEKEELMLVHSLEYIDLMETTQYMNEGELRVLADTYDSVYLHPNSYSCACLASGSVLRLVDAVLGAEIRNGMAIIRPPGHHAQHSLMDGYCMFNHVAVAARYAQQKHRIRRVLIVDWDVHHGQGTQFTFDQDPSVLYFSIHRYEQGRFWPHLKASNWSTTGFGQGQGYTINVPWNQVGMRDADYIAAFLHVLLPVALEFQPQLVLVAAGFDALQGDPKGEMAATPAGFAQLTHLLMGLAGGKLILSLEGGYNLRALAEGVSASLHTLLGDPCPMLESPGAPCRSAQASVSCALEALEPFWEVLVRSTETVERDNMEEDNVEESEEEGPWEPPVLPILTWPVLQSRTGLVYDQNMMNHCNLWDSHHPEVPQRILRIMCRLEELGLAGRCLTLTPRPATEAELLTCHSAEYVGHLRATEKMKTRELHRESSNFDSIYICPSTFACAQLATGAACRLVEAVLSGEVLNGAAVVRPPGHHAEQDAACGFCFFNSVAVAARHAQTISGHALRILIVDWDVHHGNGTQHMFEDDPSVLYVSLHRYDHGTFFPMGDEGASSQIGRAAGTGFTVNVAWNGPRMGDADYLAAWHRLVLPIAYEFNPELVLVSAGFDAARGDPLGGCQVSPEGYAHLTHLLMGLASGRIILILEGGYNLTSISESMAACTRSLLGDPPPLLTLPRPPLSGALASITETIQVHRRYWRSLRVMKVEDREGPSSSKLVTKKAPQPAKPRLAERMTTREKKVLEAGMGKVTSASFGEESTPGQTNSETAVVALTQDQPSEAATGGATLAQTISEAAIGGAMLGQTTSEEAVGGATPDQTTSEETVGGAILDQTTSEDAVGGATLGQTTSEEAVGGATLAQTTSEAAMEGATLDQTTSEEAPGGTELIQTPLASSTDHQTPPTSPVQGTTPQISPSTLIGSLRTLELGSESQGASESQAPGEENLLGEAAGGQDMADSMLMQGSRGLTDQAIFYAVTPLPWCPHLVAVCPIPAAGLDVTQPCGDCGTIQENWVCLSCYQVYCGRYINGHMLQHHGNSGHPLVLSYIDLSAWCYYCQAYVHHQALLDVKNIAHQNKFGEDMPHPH
compound,measurement,setting,value
CCCCCCCC(=O)SCC/C=C/[C@@H]1CC(=O)NCc2nc(cs2)C2=N[C@@](C)(CS2)C(=O)N[C@@H](C(C)C)C(=O)O1 [LARGAZOLE],IC50,[1],859 nM
same,IC50,[2],1850 nM
